No constants are given. Whether binding was seen depends on the method and setting. Binding seen in cells or lysates may run through a third protein. These calls come from enrichment with a bait or labelling near it, and not all partners need be listed.
Target: survivin (human (endogenous in THP-1)) (UniProt O15392)
Assay: affinity purification with mass spectrometry; anti-survivin antibodies (RnD AF886) on Protein G Dynabeads cross-linked with BS3, control rabbit IgG; THP-1 cells lysed in modified RIPA buffer (25 mM Tris-HCl pH 7.4, 200 mM NaCl, 1 mM EDTA, 1% Nonidet P-40, 5% glycerol); washes with buffer containing 0.1% SDS; Coomassie-stained gel bands digested and analysed by LC-MS/MS; two independent experiments

Chains of the proteins cited; added tags and fusions are not shown.
UniProt O15392: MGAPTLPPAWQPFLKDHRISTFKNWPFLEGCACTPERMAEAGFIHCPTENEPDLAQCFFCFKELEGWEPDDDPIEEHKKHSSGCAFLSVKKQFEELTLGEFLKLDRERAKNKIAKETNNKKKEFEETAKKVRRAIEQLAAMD
UniProt Q92922: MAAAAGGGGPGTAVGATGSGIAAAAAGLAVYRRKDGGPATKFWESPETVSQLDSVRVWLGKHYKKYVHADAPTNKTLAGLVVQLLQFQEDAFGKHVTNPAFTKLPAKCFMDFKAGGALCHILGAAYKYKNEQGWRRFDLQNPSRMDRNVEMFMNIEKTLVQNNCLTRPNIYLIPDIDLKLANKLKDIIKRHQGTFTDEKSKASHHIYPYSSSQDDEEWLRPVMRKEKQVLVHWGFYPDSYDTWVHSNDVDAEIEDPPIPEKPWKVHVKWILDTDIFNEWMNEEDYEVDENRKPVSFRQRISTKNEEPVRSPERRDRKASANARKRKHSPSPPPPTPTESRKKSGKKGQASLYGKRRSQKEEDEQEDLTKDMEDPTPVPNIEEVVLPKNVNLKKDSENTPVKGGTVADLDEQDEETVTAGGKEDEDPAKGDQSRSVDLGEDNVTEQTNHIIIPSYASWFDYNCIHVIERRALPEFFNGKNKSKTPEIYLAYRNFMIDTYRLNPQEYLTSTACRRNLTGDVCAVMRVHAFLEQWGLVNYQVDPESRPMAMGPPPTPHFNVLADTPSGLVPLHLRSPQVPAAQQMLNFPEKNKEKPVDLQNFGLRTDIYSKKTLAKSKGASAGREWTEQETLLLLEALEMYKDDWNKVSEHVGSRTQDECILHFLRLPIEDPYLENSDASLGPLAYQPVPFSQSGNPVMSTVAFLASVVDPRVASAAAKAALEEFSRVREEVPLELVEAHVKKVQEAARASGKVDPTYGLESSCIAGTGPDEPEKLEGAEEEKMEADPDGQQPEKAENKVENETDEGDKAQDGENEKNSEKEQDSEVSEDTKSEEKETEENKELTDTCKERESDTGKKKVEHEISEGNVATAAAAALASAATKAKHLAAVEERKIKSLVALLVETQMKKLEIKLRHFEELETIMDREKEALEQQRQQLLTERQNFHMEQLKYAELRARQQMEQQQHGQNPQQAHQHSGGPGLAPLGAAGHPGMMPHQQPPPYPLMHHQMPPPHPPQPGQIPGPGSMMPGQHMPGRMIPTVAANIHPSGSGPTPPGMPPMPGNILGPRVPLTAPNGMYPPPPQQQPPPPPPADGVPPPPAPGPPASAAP
UniProt Q8TAQ2: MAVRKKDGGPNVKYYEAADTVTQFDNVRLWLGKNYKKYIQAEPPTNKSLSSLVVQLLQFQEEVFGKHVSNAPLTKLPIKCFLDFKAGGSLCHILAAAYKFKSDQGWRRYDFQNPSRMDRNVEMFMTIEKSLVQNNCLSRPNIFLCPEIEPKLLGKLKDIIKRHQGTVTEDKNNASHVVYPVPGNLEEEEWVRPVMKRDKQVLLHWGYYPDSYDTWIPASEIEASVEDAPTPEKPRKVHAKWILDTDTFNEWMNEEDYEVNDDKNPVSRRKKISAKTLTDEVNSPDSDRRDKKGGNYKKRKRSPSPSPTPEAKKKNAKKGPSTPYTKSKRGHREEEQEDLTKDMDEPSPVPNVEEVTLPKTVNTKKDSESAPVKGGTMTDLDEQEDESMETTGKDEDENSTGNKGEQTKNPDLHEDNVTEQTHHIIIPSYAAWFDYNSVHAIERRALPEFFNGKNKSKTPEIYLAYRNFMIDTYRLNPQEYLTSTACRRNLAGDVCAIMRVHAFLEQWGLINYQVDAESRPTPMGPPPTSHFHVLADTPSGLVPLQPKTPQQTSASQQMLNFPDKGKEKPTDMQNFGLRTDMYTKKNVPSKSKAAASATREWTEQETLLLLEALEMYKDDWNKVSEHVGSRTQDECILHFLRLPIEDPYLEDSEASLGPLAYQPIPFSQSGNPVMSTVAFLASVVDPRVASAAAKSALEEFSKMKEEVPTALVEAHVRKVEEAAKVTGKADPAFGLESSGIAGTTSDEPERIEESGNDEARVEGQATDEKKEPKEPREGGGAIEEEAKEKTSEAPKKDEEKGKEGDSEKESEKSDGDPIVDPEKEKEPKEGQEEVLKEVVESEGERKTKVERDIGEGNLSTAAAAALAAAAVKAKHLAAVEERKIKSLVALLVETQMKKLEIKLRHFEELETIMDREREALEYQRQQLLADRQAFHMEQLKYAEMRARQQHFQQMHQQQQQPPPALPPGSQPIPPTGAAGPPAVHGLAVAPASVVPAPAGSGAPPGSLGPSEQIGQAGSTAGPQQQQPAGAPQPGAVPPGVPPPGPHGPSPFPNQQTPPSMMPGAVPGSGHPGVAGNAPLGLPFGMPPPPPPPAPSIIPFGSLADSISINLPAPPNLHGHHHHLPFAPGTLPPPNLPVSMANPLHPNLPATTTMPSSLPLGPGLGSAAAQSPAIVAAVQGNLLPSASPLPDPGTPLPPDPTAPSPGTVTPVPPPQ
UniProt P51531: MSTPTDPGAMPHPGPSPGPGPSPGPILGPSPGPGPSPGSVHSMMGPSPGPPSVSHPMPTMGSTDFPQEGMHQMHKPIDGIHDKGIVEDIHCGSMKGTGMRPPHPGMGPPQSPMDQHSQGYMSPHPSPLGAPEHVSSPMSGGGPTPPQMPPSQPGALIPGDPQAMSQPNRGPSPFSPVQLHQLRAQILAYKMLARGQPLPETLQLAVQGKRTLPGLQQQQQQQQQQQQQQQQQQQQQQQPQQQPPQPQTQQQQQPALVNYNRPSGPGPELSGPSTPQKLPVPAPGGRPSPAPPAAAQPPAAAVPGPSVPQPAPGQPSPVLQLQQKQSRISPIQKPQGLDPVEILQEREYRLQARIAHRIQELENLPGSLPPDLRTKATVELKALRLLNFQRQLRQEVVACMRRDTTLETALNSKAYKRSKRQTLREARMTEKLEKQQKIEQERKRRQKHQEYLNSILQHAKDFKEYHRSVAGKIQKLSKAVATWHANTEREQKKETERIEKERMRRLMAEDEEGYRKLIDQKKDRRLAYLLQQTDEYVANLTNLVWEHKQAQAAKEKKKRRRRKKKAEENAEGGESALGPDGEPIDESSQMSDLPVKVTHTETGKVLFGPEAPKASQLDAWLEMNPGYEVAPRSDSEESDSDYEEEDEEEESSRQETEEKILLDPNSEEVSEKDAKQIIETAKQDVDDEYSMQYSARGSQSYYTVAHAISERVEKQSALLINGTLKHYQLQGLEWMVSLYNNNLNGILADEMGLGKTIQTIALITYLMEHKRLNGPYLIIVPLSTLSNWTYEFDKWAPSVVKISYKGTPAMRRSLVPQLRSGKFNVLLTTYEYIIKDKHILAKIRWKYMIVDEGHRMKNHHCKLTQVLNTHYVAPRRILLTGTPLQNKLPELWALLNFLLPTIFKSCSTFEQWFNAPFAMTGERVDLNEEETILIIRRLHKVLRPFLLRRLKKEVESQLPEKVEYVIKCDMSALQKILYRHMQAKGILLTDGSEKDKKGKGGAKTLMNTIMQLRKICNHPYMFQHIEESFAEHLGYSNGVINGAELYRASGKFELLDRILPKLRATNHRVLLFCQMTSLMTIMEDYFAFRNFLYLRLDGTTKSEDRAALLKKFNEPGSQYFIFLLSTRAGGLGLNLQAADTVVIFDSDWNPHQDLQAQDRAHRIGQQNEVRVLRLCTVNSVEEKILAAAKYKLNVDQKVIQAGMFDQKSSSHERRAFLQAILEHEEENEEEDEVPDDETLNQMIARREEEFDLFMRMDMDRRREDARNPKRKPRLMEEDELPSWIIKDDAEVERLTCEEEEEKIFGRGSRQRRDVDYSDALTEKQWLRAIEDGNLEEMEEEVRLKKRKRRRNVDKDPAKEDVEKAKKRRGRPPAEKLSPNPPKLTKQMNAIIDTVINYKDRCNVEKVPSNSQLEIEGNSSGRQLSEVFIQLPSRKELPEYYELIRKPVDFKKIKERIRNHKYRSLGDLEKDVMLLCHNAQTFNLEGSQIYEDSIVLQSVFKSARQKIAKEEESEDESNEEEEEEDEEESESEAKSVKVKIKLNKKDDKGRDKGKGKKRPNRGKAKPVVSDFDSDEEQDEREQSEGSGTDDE
UniProt Q92925: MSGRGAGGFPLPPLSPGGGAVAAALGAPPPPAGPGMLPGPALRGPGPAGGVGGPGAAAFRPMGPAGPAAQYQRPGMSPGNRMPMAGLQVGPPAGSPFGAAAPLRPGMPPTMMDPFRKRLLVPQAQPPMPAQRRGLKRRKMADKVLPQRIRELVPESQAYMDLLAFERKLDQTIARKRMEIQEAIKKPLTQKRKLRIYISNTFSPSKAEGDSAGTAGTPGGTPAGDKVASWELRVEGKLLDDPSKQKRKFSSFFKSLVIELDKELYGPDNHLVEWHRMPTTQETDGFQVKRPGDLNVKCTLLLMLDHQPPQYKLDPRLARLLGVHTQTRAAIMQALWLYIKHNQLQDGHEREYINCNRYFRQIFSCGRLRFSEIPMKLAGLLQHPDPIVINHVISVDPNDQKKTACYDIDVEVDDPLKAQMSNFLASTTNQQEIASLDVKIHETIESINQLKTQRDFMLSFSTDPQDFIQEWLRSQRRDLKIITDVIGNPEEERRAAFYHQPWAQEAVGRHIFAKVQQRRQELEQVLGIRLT
UniProt P51532: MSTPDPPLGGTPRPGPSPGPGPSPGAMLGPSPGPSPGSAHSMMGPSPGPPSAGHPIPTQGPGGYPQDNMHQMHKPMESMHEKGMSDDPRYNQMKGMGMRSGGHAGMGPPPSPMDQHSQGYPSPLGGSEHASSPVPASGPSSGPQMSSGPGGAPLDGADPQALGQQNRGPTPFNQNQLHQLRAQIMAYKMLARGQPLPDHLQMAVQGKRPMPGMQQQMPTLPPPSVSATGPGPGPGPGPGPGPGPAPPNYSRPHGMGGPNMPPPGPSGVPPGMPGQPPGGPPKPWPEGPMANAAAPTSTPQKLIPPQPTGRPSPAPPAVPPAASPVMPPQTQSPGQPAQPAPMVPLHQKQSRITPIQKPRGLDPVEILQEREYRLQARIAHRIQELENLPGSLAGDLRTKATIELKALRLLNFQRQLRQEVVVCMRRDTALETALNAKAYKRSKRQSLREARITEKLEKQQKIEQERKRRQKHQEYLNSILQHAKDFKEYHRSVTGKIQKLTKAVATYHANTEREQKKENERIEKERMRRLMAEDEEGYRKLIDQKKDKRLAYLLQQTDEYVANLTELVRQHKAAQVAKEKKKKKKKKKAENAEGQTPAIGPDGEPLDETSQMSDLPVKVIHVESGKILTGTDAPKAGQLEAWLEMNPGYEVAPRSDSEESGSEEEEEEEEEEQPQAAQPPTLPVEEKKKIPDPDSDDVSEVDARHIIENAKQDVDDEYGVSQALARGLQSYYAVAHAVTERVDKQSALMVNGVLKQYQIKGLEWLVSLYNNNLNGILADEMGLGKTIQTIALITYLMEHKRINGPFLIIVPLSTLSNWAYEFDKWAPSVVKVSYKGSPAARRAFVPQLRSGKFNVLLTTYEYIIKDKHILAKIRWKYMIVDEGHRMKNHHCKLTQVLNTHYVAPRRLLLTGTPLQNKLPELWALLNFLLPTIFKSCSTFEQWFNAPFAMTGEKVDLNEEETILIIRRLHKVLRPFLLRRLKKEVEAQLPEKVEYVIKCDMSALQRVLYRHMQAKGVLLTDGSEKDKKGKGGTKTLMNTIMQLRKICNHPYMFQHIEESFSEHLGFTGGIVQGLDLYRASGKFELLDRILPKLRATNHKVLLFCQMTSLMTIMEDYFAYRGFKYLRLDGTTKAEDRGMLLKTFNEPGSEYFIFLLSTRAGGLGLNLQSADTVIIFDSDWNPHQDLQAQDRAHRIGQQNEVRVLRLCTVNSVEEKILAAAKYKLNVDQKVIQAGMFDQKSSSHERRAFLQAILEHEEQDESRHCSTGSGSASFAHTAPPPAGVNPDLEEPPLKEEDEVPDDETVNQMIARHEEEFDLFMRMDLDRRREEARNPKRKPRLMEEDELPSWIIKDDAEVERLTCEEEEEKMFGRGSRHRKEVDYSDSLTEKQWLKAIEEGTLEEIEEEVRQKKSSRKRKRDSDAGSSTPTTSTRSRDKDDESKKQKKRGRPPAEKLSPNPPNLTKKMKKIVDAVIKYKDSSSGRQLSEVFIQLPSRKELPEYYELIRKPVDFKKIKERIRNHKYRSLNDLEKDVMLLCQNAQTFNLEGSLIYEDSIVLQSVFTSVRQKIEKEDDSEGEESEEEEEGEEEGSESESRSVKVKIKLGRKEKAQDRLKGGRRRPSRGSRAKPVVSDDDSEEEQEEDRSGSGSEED

| Substance | binding |
| --- | --- |
| SMARCC1 (from UniProt Q92922 1-1105) | binds |
| DPF2 (from UniProt Q92785 1-391) | binds |
| SMARCD1 (from UniProt Q96GM5 1-515) | binds |
| SMARCC2 (from UniProt Q8TAQ2 1-1214) | binds |
| SMARCA2 (from UniProt P51531 1-1590) | binds |
| SMARCD2 (from UniProt Q92925 1-531) | binds |
| SMARCA4 (from UniProt P51532 1-1647) | binds |
| SMARCE1 (from UniProt Q969G3 1-411) | binds |
| PBRM1 (from UniProt Q86U86 1-1689) | binds |

Source: publication PMC11389452
